The record followed here is PubChem BioAssay AID256 (DTP/NCI, 2004).

The list shows only some results of the screen, not a fair sample: it is rich in T/C values a quarter to a half above the control, in often repeated tests (any T/C) and in doses without a T/C. Further doses and runs are listed elsewhere. T/C is the treated group as % of the vehicle group. Some doses have a count of surviving animals in place of a T/C: the source holds a T/C of zero for them, seemingly a mark for toxic or unscored doses. Some survivor counts are full or nearly so, which does not show that the dose was tolerated: the source hardly ever lists a survival T/C far under the control, and the zero likely stands for such cases as well. Survivors were counted at the toxicity check, usually on the fifth day, unless a day is given; later deaths do not show. Schedules are NCI's codes, read here as Q, the interval in days (D) or hours (H), X, the number of doses. Some entries were tested several times; their values stand side by side, smallest first. Some molecules as drawn cover several salts, stereoisomers or complexes of the source; a dose is that of the sample tested. Where survival is the endpoint, this PubChem deposit counts one and a half times the control or more as active, and values a quarter to a half above the control carry no call in these data; other NCI protocols may use other cut-offs.

For the experiment, the system named is CD2F1 mice, L1210 leukemia ip, survival T/C. Put plainly: NCI In Vivo Anticancer Drug Screen. Data for tumor model L1210 Leukemia (intraperitoneal) in CD2F1 (CDF1) mice. The settings on record: higher T/C = longer survival. The method in brief: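 Vehicle-treated tumor-bearing mice served as controls (C) for compound-treated mice (T). Reported figure is T divided by C.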

Where [1] appears, read: T/C endpoint: mean survival time, dose: 400.0 mg/kg/injection, schedule: Q01DX001 (ip), vehicle: other.
Where [2] appears, read: T/C endpoint: mean survival time, dose: 400.0 mg/kg/injection, schedule: Q04DX002 (ip), vehicle: saline with Tween-80.
Where [3] appears, read: T/C endpoint: mean survival time, dose: 400.0 mg/kg/injection, schedule: Q04DX003 (ip), vehicle: saline with Tween-80.
Where [4] appears, read: T/C endpoint: mean survival time, dose: 400.0 mg/kg/injection, schedule: Q04DX003 (ip), vehicle: saline.
Where [5] appears, read: T/C endpoint: mean survival time, dose: 400.0 mg/kg/injection, schedule: Q01DX009 (ip), vehicle: saline with Tween-80.

As for `CN(C)[C@@H]1C(=O)C(C(=O)NCNC(Cc2ccc(N(CCCl)CCCl)cc2)C(=O)O)=C(O)[C@@]2(O)C(=O)C3=C(O)c4c(O)cccc4[C@@](C)(O)[C@H]3C[C@@H]12` (some centres undefined), the survivor count reads like this: (T/C endpoint: mean survival time, dose: 200.0 mg/kg/injection, schedule: Q01DX001 (ip), vehicle: other) 2 of 4; under setting [1], 1 of 4.

As for `ClCCN(CCCl)c1ccc(CCCCN2CCOCC2)cc1`, the T/C (T/C endpoint: mean survival time, dose: 20.0 mg/kg/injection, schedule: Q01DX009 (ip), vehicle: saline) was 130 % of control.

Consider `CC1=C2CCCCC2COC1=O` (centres undefined), for which the survivor count reads like this: (T/C endpoint: mean survival time, dose: 75.0 mg/kg/injection, schedule: Q01DX001 (ip), vehicle: saline) 0 of 6; (T/C endpoint: mean survival time, dose: 150.0 mg/kg/injection, schedule: Q01DX001 (ip), vehicle: saline) 0 of 6; (T/C endpoint: mean survival time, dose: 300.0 mg/kg/injection, schedule: Q01DX001 (ip), vehicle: saline) 0 of 6.

Regarding `CC(C)OC(=O)CCl`, the survivor count (T/C endpoint: mean survival time, dose: 400.0 mg/kg/injection, schedule: Q01DX001 (ip), vehicle: saline with Tween-80) is given as 1 of 3.

Regarding `O=C(O)C1CCC(C(=O)O)CC1.[NH-]C1CCCCC1[NH-].[Pt+2]` (centres undefined), the T/C by setting is: (T/C endpoint: median survival time, dose: 6.25 mg/kg/injection, schedule: Q04DX003 (ip), vehicle: saline) 125 % of control; (T/C endpoint: median survival time, dose: 12.5 mg/kg/injection, schedule: Q04DX003 (ip), vehicle: saline) 126 and 143 % of control; (T/C endpoint: median survival time, dose: 25.0 mg/kg/injection, schedule: Q04DX003 (ip), vehicle: saline) 140 % of control.

On to `C=C1C(=O)OC(CCCCCCCCCCCCC)C1C(=O)O` (centres undefined), for which the survivor count is 0 of 3 (T/C endpoint: mean survival time, dose: 80.0 mg/kg/injection, schedule: Q04DX002 (ip), vehicle: saline with Tween-80) and 0 of 3 (T/C endpoint: mean survival time, dose: 160.0 mg/kg/injection, schedule: Q04DX002 (ip), vehicle: saline with Tween-80).

Take `CC(C)C(O)(c1ccccc1)C(O)(c1ccccc1)C(C)C` (centres undefined): the survivor count under setting [2] is given as 0 of 3.

In the case of `O=C(c1ccccc1)N(N=C(c1ccc([N+](=O)[O-])cc1)c1ccc([N+](=O)[O-])cc1)c1ccccc1`, for the setting “T/C endpoint: mean survival time, dose: 200.0 mg/kg/injection, schedule: Q04DX003 (ip), vehicle: saline with Tween-80”, the survivor count is 6 of 6.

Regarding `Clc1ccc2nc(C(Cl)(Cl)Cl)nc(NCCN3CCCCC3)c2c1`, the survivor count reads like this: (T/C endpoint: mean survival time, dose: 100.0 mg/kg/injection, schedule: Q04DX003 (ip), vehicle: saline with Tween-80) 5 of 6; under setting [3], 5 of 6.

Take `CNC(=O)OCc1nc(SC)n(C)c1COC(=O)NC`: the T/C by setting is: (T/C endpoint: median survival time, dose: 40.0 mg/kg/injection, schedule: Q01DX005 (ip), vehicle: saline) 144 % of control; (T/C endpoint: median survival time, dose: 50.0 mg/kg/injection, schedule: Q01DX005 (ip), vehicle: suspension in saline) 127 % of control; (T/C endpoint: median survival time, dose: 80.0 mg/kg/injection, schedule: Q01DX005 (ip), vehicle: saline) 141 % of control; (T/C endpoint: median survival time, dose: 100.0 mg/kg/injection, schedule: Q01DX005 (ip), vehicle: saline) 145 % of control; (T/C endpoint: median survival time, dose: 100.0 mg/kg/injection, schedule: Q01DX005 (ip), vehicle: suspension in saline) 145 % of control. For the same compound, the survivor count (T/C endpoint: median survival time, dose: 200.0 mg/kg/injection, schedule: Q01DX005 (ip), vehicle: saline) was 6 of 6.

For the compound `COc1cc(C(=O)N(C(C)C)C2CCCCC2)cc(OC)c1OC`, the survivor count under setting [3] is listed as 2 of 6.

For `NC(N)=NS(=O)(=O)c1ccc(NCc2c3ccccc3nc3ccccc23)cc1`, the T/C was 143 % of control (T/C endpoint: median survival time, dose: 100.0 mg/kg/injection, schedule: Q01DX005 (ip), vehicle: Klucel (hydroxypropylcellulose) (HPC)) and 141 % of control (T/C endpoint: median survival time, dose: 288.0 mg/kg/injection, schedule: Q01DX005 (ip), vehicle: Klucel (hydroxypropylcellulose) (HPC)).

Turning to `CC1OC(OC(=O)c2ccc([N+](=O)[O-])cc2)CC(NC(=O)C(F)(F)F)C1OC(=O)c1ccc([N+](=O)[O-])cc1` (centres undefined), the survivor count is, setting by setting: (T/C endpoint: mean survival time, dose: 100.0 mg/kg/injection, schedule: Q01DX005 (ip), vehicle: Klucel (hydroxypropylcellulose) (HPC)) 3 of 4; (T/C endpoint: mean survival time, dose: 200.0 mg/kg/injection, schedule: Q01DX005 (ip), vehicle: Klucel (hydroxypropylcellulose) (HPC)) 3 of 4; (T/C endpoint: mean survival time, dose: 400.0 mg/kg/injection, schedule: Q01DX005 (ip), vehicle: Klucel (hydroxypropylcellulose) (HPC)) 1 of 4.

On to `Nc1ccc2ccc(O)cc2c1`, for which, for the setting “T/C endpoint: mean survival time, dose: 200.0 mg/kg/injection, schedule: Q01DX009 (ip), vehicle: saline”, the T/C was 129 % of control. Besides, the survivor count reads like this: (T/C endpoint: mean survival time, dose: 400.0 mg/kg/injection, schedule: Q01DX009 (ip), vehicle: saline) 0 of 6; under setting [4], 0 of 6.

Turning to `CC(=O)OCC1OC(n2ncnc2CI)C(OC(C)=O)C(OC(C)=O)C1OC(C)=O` (centres undefined), the survivor count reads like this: (T/C endpoint: median survival time, dose: 100.0 mg/kg/injection, schedule: Q01DX005 (ip), vehicle: distilled water + Tween-80) 0 of 6; (T/C endpoint: median survival time, dose: 200.0 mg/kg/injection, schedule: Q01DX005 (ip), vehicle: distilled water + Tween-80) 0 of 6.

Consider `COc1ccc2c(c1)CCC(c1ccccc1)=C2c1ccc(OCCN2CCCC2)cc1`, for which the survivor count is, setting by setting: (T/C endpoint: mean survival time, dose: 48.0 mg/kg/injection, schedule: Q01DX009 (ip), vehicle: saline with Tween-80) 3 of 6; (T/C endpoint: mean survival time, dose: 160.0 mg/kg/injection, schedule: Q04DX003 (ip), vehicle: saline with Tween-80) 2 of 6.

In the case of `COc1cc([C@@H]2c3cc4c(c(O)c3C[C@H]3COC(=O)[C@@H]32)OCO4)cc(OC)c1O`, where the note is “T/C endpoint: mean survival time, dose: 4000.0 micrograms/kg/injection, schedule: Q01DX009 (ip), vehicle: saline”, the survivor count is 6 of 6.

Turning to `CCCCCCCCCCCCNC(=O)C[n+]1cccc(C(=O)NC)c1`, the survivor count was 0 of 6 (T/C endpoint: mean survival time, dose: 100.0 mg/kg/injection, schedule: Q04DX003 (ip), vehicle: saline); 0 of 6 (T/C endpoint: mean survival time, dose: 200.0 mg/kg/injection, schedule: Q04DX003 (ip), vehicle: saline); 0 of 6 under setting [4].

With `CC(C)(C)OC(=O)NC(Cc1ccc(OCc2ccccc2)cc1)C(=O)O` (centres undefined), the survivor count under setting [3] is 4 of 6.

Turning to `CCOC1C=CCCC1` (centres undefined), the survivor count under setting [5] was 3 of 6.

On to `Cc1cc2ccc(Cl)cc2[nH]1`, for which, under setting [1], the survivor count was 1 of 4.

For `CCC(CO)[N-]CC[N-]C(CC)CO.[Cl][Pt+2][Cl]` (centres undefined), the survivor count (T/C endpoint: median survival time, dose: 100.0 mg/kg/injection, schedule: Q04DX003 (ip), vehicle: saline) is 4 of 6.

With `O=C(C[n+]1ccccc1)N/N=C/c1ccc(Cl)cc1`, the survivor count (T/C endpoint: mean survival time, dose: 200.0 mg/kg/injection, schedule: Q01DX009 (ip), vehicle: saline with Tween-80) is 3 of 6 and the survivor count under setting [5] is on record as 0 of 6.

Consider `CCC1(C)C=CCC(C)(C)S1` (centres undefined), for which the survivor count under setting [2] is given as 3 of 3.

For the compound `Cc1ccc(C(=O)NC2C(=O)NC(C(C)C)C(=O)N3CCCC3C(=O)N(C)CC(=O)N(C)C(C(C)C)C(=O)OC2C)c2c1Oc1c(c(C(=O)NC3C(=O)NC(C(C)C)C(=O)N4CCCC4C(=O)N(C)CC(=O)N(C)C(C(C)C)C(=O)OC3C)c3nc(-c4ccccc4)c(=O)oc3c1C)N2` (centres undefined), the T/C reads like this: (T/C endpoint: median survival time, dose: 0.12 mg/kg/injection, schedule: Q01DX009 (ip), vehicle: water) 128 % of control; (T/C endpoint: median survival time, dose: 0.5 mg/kg/injection, schedule: Q01DX009 (ip), vehicle: water) 142 and 145 % of control. Besides, the survivor count is, setting by setting: (T/C endpoint: median survival time, dose: 1.0 mg/kg/injection, schedule: Q01DX009 (ip), vehicle: water) 4 of 6 and 6 of 6; (T/C endpoint: median survival time, dose: 2.0 mg/kg/injection, schedule: Q01DX009 (ip), vehicle: water) 2 of 6.

For the compound `N#CCc1ccccc1-c1ccccc1CC#N`, the survivor count (T/C endpoint: mean survival time, dose: 80.0 mg/kg/injection, schedule: Q01DX001 (ip), vehicle: other) is on record as 3 of 6.

For the compound `N#C[S-].N#C[S-].N#C[S-].N#C[S-].[Co]`, the survivor count (T/C endpoint: mean survival time, dose: 100.0 mg/kg/injection, schedule: Q01DX001 (ip), vehicle: saline) is listed as 0 of 6; the survivor count (T/C endpoint: mean survival time, dose: 200.0 mg/kg/injection, schedule: Q01DX001 (ip), vehicle: saline) is 0 of 6; the survivor count (T/C endpoint: mean survival time, dose: 400.0 mg/kg/injection, schedule: Q01DX001 (ip), vehicle: saline) is 0 of 6.
